Experimental data reported in PubChem BioAssay AID330 (DTP/NCI, 2004).
The list is a part of this screen's results and no random one: it gathers tests that were run many times, whatever their T/C, doses with no T/C, and many T/C values between a quarter and a half above the control. Further doses and runs are listed elsewhere. T/C is the treated group as % of the vehicle group. Some doses have a count of surviving animals in place of a T/C: the source holds a T/C of zero for them, seemingly a mark for toxic or unscored doses. Some survivor counts are full or nearly so, which does not show that the dose was tolerated: survival well below the control is almost never listed, so the zero probably covers shortened survival too. Counts of survivors are from the toxicity check (mostly the fifth day) where no day follows; animals may have died later. Schedule codes are those of the source, read here as Q, the interval in days (D) or hours (H), X, the number of doses. Some structures stand for samples that the source files as different forms (salt, stereo form or complex); doses refer to the form tested. Some doses were run more than once; their values stand side by side, smallest first. Where survival is the endpoint, the PubChem record calls one and a half times the control and up active, and a quarter to a half above the control has no call in these data; cut-offs in other NCI protocols can differ. Some T/C values are followed by the survivors on the day toxicity was checked, most often the fifth; without a count, all were alive then.

Test system: P388 leukemia ip, CD2F1 mice, survival T/C
Assay: NCI In Vivo Anticancer Drug Screen. Data for tumor model P388 Leukemia (intraperitoneal) in CD2F1 (CDF1) mice
Settings: T/C endpoint: median survival time, higher T/C = longer survival
[1] = dose: 50.0 mg/kg/injection, schedule: Q04DX003 (ip), vehicle: water
[2] = dose: 100.0 mg/kg/injection, schedule: Q04DX003 (ip), vehicle: water
[3] = dose: 50.0 mg/kg/injection, schedule: Q01DX009 (ip), vehicle: saline
[4] = dose: 200.0 mg/kg/injection, schedule: Q01DX005 (ip), vehicle: Klucel (hydroxypropylcellulose) (HPC)
[5] = dose: 160.0 mg/kg/injection, schedule: Q01DX009 (ip), vehicle: saline with Tween-80
[6] = dose: 400.0 mg/kg/injection, schedule: Q04DX003 (ip), vehicle: saline with Tween-80
[7] = dose: 400.0 mg/kg/injection, schedule: Q01DX009 (ip), vehicle: saline with Tween-80

Q: `CCC1(c2cccc(C=O)c2)CCCCN(C)C1` (stereo not drawn) was tested. Which survivor count (dose: 50.0 mg/kg/injection, schedule: Q01DX005 (ip), vehicle: saline) did it give?
A: The survivor count was 4 of 5.

Q: What about the survivor count (dose: 100.0 mg/kg/injection, schedule: Q01DX005 (ip), vehicle: saline) of the same molecule?
A: Its survivor count is 0 of 5.

Q: And the survivor count (dose: 200.0 mg/kg/injection, schedule: Q01DX005 (ip), vehicle: saline)?
A: Its survivor count is 0 of 5.

Q: Which T/C (dose: 1.25 mg/kg/injection, schedule: Q04DX002 (ip), vehicle: water) does the source give for `CCN(CC)CC[n+]1ccc2c(C)c3[nH]c4ccccc4c3c(C)c2c1` here?
A: Its T/C is 125 % of control.

Q: And the T/C (dose: 2.5 mg/kg/injection, schedule: Q04DX002 (ip), vehicle: water)?
A: The T/C was 130 % of control.

Q: What about the T/C (dose: 3.12 mg/kg/injection, schedule: Q04DX003 (ip), vehicle: water) of the same molecule?
A: Its T/C is 127 % of control.

Q: What about the T/C (dose: 5.0 mg/kg/injection, schedule: Q04DX002 (ip), vehicle: water) of the same molecule?
A: The T/C was 129 and 137 % of control.

Q: And the T/C (dose: 6.25 mg/kg/injection, schedule: Q04DX003 (ip), vehicle: water)?
A: Its T/C is 125 % of control.

Q: What about the survivor count (dose: 10.0 mg/kg/injection, schedule: Q04DX002 (ip), vehicle: water) of the same molecule?
A: Its survivor count is 1 of 6 and 4 of 6.

Q: What about the survivor count (dose: 12.5 mg/kg/injection, schedule: Q04DX003 (ip), vehicle: water) of the same molecule?
A: Its survivor count is 5 of 6.

Q: What about the survivor count (dose: 20.0 mg/kg/injection, schedule: Q04DX002 (ip), vehicle: water) of the same molecule?
A: Its survivor count is 0 of 6 and 5 of 6.

Q: What about the survivor count (dose: 25.0 mg/kg/injection, schedule: Q04DX003 (ip), vehicle: water) of the same molecule?
A: Its survivor count is 5 of 6.

Q: And the survivor count (dose: 40.0 mg/kg/injection, schedule: Q04DX002 (ip), vehicle: water)?
A: Its survivor count is 2 of 6.

Q: And the survivor count [1]?
A: The survivor count was 0 of 6.

Q: What about the survivor count (dose: 80.0 mg/kg/injection, schedule: Q04DX002 (ip), vehicle: water) of the same molecule?
A: Its survivor count is 0 of 6.

Q: And the survivor count [2]?
A: The survivor count was 0 of 6.

Q: And the survivor count (dose: 200.0 mg/kg/injection, schedule: Q04DX003 (ip), vehicle: water)?
A: The survivor count was 0 of 6.

Q: `O=C1C2C3C=CC(C3)C2C(=O)N1c1ccc2nc(SC3C=CCCC3)sc2c1` (stereo not drawn) was tested. Which survivor count (dose: 100.0 mg/kg/injection, schedule: Q01DX009 (ip), vehicle: Klucel (hydroxypropylcellulose) (HPC)) did it give?
A: The survivor count was 6 of 6.

Q: What does the source list for `O=C(O)c1n[nH]c2ccccc2c1=O`?
A: survivor count (dose: 50.0 mg/kg/injection, schedule: Q01DX009 (ip), vehicle: other): 3 of 6; survivor count (dose: 100.0 mg/kg/injection, schedule: Q01DX009 (ip), vehicle: other): 2 of 6; survivor count (dose: 200.0 mg/kg/injection, schedule: Q01DX009 (ip), vehicle: other): 1 of 6; survivor count (dose: 400.0 mg/kg/injection, schedule: Q01DX009 (ip), vehicle: other): 0 of 6

Q: How did the survivor count [3] turn out when `CN(C)Sc1ccc(Cl)cc1[N+](=O)[O-]` was run?
A: The survivor count was 5 of 6.

Q: What does the source list for `CC1(C)N=C(N)N=C(N)N1c1ccc(OCCNC(=O)Nc2ccc(S(=O)(=O)F)cc2)c(Cl)c1`?
A: T/C (dose: 100.0 mg/kg/injection, schedule: Q04DX003 (ip), vehicle: saline): 130 % of control; survivor count (dose: 200.0 mg/kg/injection, schedule: Q04DX003 (ip), vehicle: saline): 4 of 6

Q: With `CC1=CC(=Nc2ccc(N(CCCl)CCCl)cc2)C(C)=C(C)C1=O` as the molecule, how does the T/C (dose: 200.0 mg/kg/injection, schedule: Q01DX001 (ip), vehicle: Klucel (hydroxypropylcellulose) (HPC)) read?
A: The T/C was 126 and 144 % of control.

Q: What about the T/C (dose: 400.0 mg/kg/injection, schedule: Q01DX001 (ip), vehicle: Klucel (hydroxypropylcellulose) (HPC)) of the same molecule?
A: The T/C was 131 and 141 % of control.

Q: Which T/C (dose: 25.0 mg/kg/injection, schedule: Q04DX003 (ip), vehicle: distilled water + Tween-80) does the source give for `CC(=O)[C@]1(O)Cc2c(O)c3c(c(O)c2[C@@H](OC2CC(N)C(O)C(C)O2)C1)C(=O)c1c(OCc2ccccc2)cccc1C3=O` (stereo partly drawn) here?
A: Its T/C is 133 % of control.

Q: And the T/C (dose: 50.0 mg/kg/injection, schedule: Q04DX003 (ip), vehicle: distilled water + Tween-80)?
A: The T/C was 125 % of control [5 of 6 alive on day 9].

Q: How did the survivor count (dose: 400.0 mg/kg/injection, schedule: Q01DX001 (ip), vehicle: distilled water + Tween-80) turn out when `COC1CCC(NC(=O)N(N=O)C2CCC(OC)CC2)CC1` (stereo not drawn) was run?
A: The survivor count was 2 of 6.

Q: With `CCCCC/C([O-])=C1/C(=O)N(c2ccccc2)N=C1C.CCCCC/C([O-])=C1/C(=O)N(c2ccccc2)N=C1C.[Cu+2]` as the molecule, how does the survivor count (dose: 240.0 mg/kg/injection, schedule: Q01DX005 (ip), vehicle: saline with Tween-80) read?
A: Its survivor count is 0 of 6.

Q: How did the survivor count (dose: 200.0 mg/kg/injection, schedule: Q01DX009 (ip), vehicle: DMSO) turn out when `COC(=O)c1ccccc1NC(c1ccccn1)c1ccc2cccnc2c1O` (stereo not drawn) was run?
A: Its survivor count is 4 of 6.

Q: And the survivor count (dose: 400.0 mg/kg/injection, schedule: Q01DX009 (ip), vehicle: DMSO)?
A: Its survivor count is 3 of 6.

Q: `O=C1c2ccccc2C(=O)c2c(NCCCC3CCCN4CCCCC34)cccc21` (stereo not drawn) was tested. Which survivor count [4] did it give?
A: Its survivor count is 0 of 6.

Q: With `Nc1cccc(N)n1` as the molecule, how does the survivor count (dose: 25.0 mg/kg/injection, schedule: Q01DX009 (ip), vehicle: saline) read?
A: Its survivor count is 6 of 6.

Q: And the survivor count [3]?
A: Its survivor count is 0 of 6.

Q: What about the survivor count (dose: 100.0 mg/kg/injection, schedule: Q01DX009 (ip), vehicle: saline) of the same molecule?
A: Its survivor count is 0 of 6.

Q: What about the survivor count (dose: 200.0 mg/kg/injection, schedule: Q01DX009 (ip), vehicle: saline) of the same molecule?
A: The survivor count was 0 of 6.

Q: For `c1ccc2c(c1)O[As](O[As]1Oc3ccccc3O1)O2`, which T/C (dose: 5.0 mg/kg/injection, schedule: Q01DX009 (ip), vehicle: saline with Tween-80) is on record?
A: Its T/C is 130 % of control.

Q: And the T/C (dose: 10.0 mg/kg/injection, schedule: Q01DX009 (ip), vehicle: saline with Tween-80)?
A: Its T/C is 141 and 148 % of control.

Q: And the T/C (dose: 20.0 mg/kg/injection, schedule: Q01DX009 (ip), vehicle: saline with Tween-80)?
A: The T/C was 147 % of control.

Q: For `Cn1c(=O)oc2cc(N)c(Cl)cc21`, which survivor count (dose: 100.0 mg/kg/injection, schedule: Q01DX005 (ip), vehicle: Klucel (hydroxypropylcellulose) (HPC)) is on record?
A: Its survivor count is 4 of 6.

Q: What about the survivor count [4] of the same molecule?
A: The survivor count was 2 of 6.

Q: With `C=C1C(=O)OC2/C=C(\C)C(O)CC(O)C(C)(O)CC(OC(=O)/C(C)=C/C)C12` (stereo not drawn) as the molecule, how does the T/C (dose: 80.0 mg/kg/injection, schedule: Q01DX009 (ip), vehicle: saline with Tween-80) read?
A: The T/C was 125 % of control [5 of 6 alive].

Q: And the T/C [5]?
A: Its T/C is 137 % of control.

Q: And the survivor count [5]?
A: Its survivor count is 6 of 6.

Q: Which survivor count (dose: 12.5 mg/kg/injection, schedule: Q01DX009 (ip), vehicle: water) does the source give for `CCCCCCCCCCCCCCCCCC(=O)OCC(=O)OCC(=O)[C@]1(O)Cc2c(O)c3c(c(O)c2[C@@H](OC2CC(N)C(O)C(C)O2)C1)C(=O)c1c(OC)cccc1C3=O` (stereo partly drawn) here?
A: The survivor count was 6 of 6.

Q: What about the survivor count (dose: 25.0 mg/kg/injection, schedule: Q01DX009 (ip), vehicle: water) of the same molecule?
A: Its survivor count is 1 of 6.

Q: How did the survivor count (dose: 400.0 mg/kg/injection, schedule: Q04DX003 (ip), vehicle: saline) turn out when `C1=CCONC1` was run?
A: Its survivor count is 0 of 6.

Q: How did the survivor count (dose: 400.0 mg/kg/injection, schedule: Q01DX009 (ip), vehicle: saline) turn out when `OC(c1ccccc1)C(O)C(c1ccccc1)N1CCCCC1` (stereo not drawn) was run?
A: Its survivor count is 6 of 6.

Q: How did the survivor count [1] turn out when `C[n+]1cccc(C2=CCCC2)c1` was run?
A: Its survivor count is 3 of 6.

Q: What about the survivor count (dose: 100.0 mg/kg/injection, schedule: Q04DX003 (ip), vehicle: saline with Tween-80) of the same molecule?
A: The survivor count was 0 of 6.

Q: What about the survivor count [2] of the same molecule?
A: The survivor count was 0 of 6.

Q: And the survivor count (dose: 200.0 mg/kg/injection, schedule: Q04DX003 (ip), vehicle: saline with Tween-80)?
A: The survivor count was 0 of 6.

Q: What about the T/C [6] of the same molecule?
A: The T/C was 141 % of control.

Q: What about the survivor count [6] of the same molecule?
A: Its survivor count is 0 of 6.

Q: And the survivor count (dose: 600.0 mg/kg/injection, schedule: Q04DX003 (ip), vehicle: saline with Tween-80)?
A: Its survivor count is 0 of 6.

Q: For `CN(C)CCSc1nnc(N)s1`, which survivor count (dose: 400.0 mg/kg/injection, schedule: Q01DX001 (ip), vehicle: saline) is on record?
A: Its survivor count is 0 of 6.

Q: With `Nc1nc(=S)c2[nH]c(-c3ccccc3)nc2[nH]1` as the molecule, how does the survivor count (dose: 200.0 mg/kg/injection, schedule: Q01DX005 (ip), vehicle: other) read?
A: Its survivor count is 3 of 6.

Q: `CO[C@H]1/C=C/O[C@@]2(C)Oc3c(C)c(O)c4c(O)c(c(/C=N/N5CCNCC5)c(O)c4c3C2=O)NC(=O)/C(C)=C\C=C\[C@H](C)[C@H](O)[C@@H](C)[C@@H](O)[C@@H](C)C(OC(C)=O)[C@@H]1C` (stereo partly drawn) was tested. Which survivor count [7] did it give?
A: Its survivor count is 3 of 6.

Q: Which results are given for `O=[N+]([O-])c1ccc2nc(CCl)[nH]c2c1`?
A: survivor count (dose: 100.0 mg/kg/injection, schedule: Q01DX009 (ip), vehicle: saline with Tween-80): 5 of 6; survivor count (dose: 200.0 mg/kg/injection, schedule: Q01DX009 (ip), vehicle: saline with Tween-80): 3 of 6; survivor count [7]: 0 of 6
